Like-named read-outs stand apart in the source and are kept apart here. No constants are given. Whether binding was seen depends on the method and setting. Some entries that bind do so weakly or less than the wild type. Where a sequence is shown, tags or fusion partners need not be part of it. Blank lines part the entries; values can stand above or below the molecule they belong to.
Legend:
Test in all cases: PICT
[1] = target: T1, Trs85-FRB (S. cerevisiae) (UniProt P46944)
T1 sequence: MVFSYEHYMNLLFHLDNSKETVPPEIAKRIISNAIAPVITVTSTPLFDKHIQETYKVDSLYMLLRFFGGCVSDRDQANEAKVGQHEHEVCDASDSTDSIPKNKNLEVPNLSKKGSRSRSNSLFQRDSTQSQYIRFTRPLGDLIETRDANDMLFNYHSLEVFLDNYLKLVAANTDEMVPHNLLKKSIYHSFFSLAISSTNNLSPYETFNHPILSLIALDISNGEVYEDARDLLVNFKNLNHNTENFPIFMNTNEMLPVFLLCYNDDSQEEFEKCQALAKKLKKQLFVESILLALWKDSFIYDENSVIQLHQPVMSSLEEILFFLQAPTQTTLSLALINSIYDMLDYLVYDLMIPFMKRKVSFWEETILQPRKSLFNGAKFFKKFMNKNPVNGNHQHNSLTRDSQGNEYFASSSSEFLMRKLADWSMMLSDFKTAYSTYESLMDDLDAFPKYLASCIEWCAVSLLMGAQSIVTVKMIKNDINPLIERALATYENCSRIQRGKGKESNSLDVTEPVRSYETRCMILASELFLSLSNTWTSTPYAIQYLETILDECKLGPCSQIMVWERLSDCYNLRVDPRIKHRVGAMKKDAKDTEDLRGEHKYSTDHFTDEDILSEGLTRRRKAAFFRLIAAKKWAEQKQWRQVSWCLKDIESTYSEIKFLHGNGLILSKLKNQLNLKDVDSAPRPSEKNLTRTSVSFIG

Chains of the proteins cited; added tags and fusions are not shown.
UniProt P32660: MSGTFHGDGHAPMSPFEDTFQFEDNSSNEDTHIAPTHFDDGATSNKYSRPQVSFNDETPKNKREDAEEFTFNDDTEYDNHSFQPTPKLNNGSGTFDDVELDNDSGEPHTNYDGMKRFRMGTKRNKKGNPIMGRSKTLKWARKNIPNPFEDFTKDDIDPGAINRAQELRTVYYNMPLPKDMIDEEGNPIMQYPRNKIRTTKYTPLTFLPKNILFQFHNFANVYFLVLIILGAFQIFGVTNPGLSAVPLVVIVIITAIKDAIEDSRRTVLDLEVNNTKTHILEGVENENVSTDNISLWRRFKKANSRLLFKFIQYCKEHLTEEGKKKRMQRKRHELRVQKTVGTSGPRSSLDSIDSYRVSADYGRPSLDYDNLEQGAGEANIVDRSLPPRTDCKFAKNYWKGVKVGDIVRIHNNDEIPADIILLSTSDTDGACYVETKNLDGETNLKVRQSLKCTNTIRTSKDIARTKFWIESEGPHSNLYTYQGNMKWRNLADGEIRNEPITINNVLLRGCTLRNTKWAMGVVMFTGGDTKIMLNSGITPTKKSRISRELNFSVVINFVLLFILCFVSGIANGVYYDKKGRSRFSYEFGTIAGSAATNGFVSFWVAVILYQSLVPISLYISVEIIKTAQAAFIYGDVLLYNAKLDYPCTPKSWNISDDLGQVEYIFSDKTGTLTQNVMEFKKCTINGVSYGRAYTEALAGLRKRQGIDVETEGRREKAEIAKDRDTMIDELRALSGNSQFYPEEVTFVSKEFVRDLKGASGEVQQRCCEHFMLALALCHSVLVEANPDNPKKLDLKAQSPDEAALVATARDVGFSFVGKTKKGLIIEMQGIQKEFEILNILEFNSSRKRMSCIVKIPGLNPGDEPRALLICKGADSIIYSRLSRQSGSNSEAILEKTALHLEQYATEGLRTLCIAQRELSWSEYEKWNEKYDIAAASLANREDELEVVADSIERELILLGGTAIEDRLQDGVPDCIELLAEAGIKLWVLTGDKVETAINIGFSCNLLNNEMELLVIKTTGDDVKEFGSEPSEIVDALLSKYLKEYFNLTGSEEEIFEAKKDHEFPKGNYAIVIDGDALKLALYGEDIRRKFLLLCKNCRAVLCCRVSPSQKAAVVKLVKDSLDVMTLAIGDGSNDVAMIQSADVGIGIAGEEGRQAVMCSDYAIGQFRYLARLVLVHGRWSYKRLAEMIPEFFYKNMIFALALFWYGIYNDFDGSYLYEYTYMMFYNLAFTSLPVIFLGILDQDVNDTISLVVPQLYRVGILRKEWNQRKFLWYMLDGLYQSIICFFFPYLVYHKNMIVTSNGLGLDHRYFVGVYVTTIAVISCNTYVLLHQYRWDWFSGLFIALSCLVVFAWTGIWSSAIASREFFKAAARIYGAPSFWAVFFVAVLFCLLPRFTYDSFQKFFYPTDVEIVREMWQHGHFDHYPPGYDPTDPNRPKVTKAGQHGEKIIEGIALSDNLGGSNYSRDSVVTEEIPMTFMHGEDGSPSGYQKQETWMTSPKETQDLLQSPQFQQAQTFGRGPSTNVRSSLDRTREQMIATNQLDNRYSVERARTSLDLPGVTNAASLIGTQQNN
UniProt Q12675: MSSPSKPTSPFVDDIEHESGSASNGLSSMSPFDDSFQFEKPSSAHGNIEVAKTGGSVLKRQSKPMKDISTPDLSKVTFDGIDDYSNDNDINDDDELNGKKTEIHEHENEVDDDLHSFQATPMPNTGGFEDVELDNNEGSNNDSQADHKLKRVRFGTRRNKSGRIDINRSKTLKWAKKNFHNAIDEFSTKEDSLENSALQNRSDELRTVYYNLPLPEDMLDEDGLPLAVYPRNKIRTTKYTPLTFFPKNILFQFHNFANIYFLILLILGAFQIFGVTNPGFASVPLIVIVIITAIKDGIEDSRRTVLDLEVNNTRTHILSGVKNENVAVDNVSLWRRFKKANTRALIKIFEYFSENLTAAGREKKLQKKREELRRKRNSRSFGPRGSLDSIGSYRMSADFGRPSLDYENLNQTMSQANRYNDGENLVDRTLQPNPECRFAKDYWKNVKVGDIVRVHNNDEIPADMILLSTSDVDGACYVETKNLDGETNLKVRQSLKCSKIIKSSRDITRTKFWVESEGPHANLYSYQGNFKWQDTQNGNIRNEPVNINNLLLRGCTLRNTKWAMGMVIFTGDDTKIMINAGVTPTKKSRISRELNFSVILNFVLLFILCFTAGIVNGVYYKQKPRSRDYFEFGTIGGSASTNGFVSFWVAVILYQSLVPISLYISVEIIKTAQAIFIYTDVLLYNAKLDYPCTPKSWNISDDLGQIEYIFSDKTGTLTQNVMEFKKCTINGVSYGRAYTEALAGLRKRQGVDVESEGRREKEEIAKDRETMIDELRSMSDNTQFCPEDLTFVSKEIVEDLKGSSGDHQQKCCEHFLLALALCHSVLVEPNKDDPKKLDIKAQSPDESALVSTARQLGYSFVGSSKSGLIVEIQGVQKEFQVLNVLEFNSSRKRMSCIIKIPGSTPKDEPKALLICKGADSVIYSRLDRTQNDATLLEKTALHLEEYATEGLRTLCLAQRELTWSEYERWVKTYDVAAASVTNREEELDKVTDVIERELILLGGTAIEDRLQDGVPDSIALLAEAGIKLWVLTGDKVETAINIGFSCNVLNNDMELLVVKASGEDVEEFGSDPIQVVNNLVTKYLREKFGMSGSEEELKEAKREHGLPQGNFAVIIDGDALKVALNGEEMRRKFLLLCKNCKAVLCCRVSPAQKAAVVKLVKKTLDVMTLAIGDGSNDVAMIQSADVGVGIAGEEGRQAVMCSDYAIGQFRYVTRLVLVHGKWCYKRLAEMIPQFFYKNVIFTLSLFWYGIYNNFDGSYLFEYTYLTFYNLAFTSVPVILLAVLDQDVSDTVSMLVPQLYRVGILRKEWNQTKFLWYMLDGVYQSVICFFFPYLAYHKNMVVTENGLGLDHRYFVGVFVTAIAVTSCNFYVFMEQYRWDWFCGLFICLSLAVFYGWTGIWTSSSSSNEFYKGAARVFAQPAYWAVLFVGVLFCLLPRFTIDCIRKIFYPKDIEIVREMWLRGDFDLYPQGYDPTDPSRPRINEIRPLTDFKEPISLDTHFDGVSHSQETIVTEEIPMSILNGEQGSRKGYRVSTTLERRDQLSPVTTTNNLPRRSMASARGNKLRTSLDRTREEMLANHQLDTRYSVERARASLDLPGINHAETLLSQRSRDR

[2] = target: T1, Trs85-FRB (S. cerevisiae); remark: listed apart in the source
[3] = target: T1, Trs85-FRB (S. cerevisiae); remark: listed apart in the source

B1: Drs2-GFP (protein, UniProt P39524 1-1355)
chain: MNDDRETPPKRKPGEDDTLFDIDFLDDTTSHSGSRSKVTNSHANANYIPPSHVLPEETIDLDADDDNIENDVHENLFMSNNHDDQTSWNANRFDSDAYQPQSLRAVKPPGLFARFGNGLKNAFTFKRKKGPESFEMNHYNAVTNNELDDNYLDSRNKFNIKILFNRYILRKNVGDAEGNGEPRVIHINDSLANSSFGYSDNHISTTKYNFATFLPKFLFQEFSKYANLFFLCTSAIQQVPHVSPTNRYTTIGTLLVVLIVSAMKECIEDIKRANSDKELNNSTAEIFSEAHDDFVEKRWIDIRVGDIIRVKSEEPIPADTIILSSSEPEGLCYIETANLDGETNLKIKQSRVETAKFIDVKTLKNMNGKVVSEQPNSSLYTYEGTMTLNDRQIPLSPDQMILRGATLRNTAWIFGLVIFTGHETKLLRNATATPIKRTAVEKIINRQIIALFTVLIVLILISSIGNVIMSTADAKHLSYLYLEGTNKAGLFFKDFLTFWILFSNLVPISLFVTVELIKYYQAFMIGSDLDLYYEKTDTPTVVRTSSLVEELGQIEYIFSDKTGTLTRNIMEFKSCSIAGHCYIDKIPEDKTATVEDGIEVGYRKFDDLKKKLNDPSDEDSPIINDFLTLLATCHTVIPEFQSDGSIKYQAASPDEGALVQGGADLGYKFIIRKPNSVTVLLEETGEEKEYQLLNICEFNSTRKRMSAIFRFPDGSIKLFCKGADTVILERLDDEANQYVEATMRHLEDYASEGLRTLCLAMRDISEGEYEEWNSIYNEAATTLDNRAEKLDEAANLIEKNLILIGATAIEDKLQDGVPETIHTLQEAGIKIWVLTGDRQETAINIGMSCRLLSEDMNLLIINEETRDDTERNLLEKINALNEHQLSTHDMNTLALVIDGKSLGFALEPELEDYLLTVAKLCKAVICCRVSPLQKALVVKMVKRKSSSLLLAIGDGANDVSMIQAAHVGVGISGMEGMQAARSADIAVGQFKFLKKLLLVHGSWSYQRISVAILYSFYKNTALYMTQFWYVFANAFSGQSIMESWTMSFYNLFFTVWPPFVIGVFDQFVSSRLLERYPQLYKLGQKGQFFSVYIFWGWIINGFFHSAIVFIGTILIYRYGFALNMHGELADHWSWGVTVYTTSVIIVLGKAALVTNQWTKFTLIAIPGSLLFWLIFFPIYASIFPHANISREYYGVVKHTYGSGVFWLTLIVLPIFALVRDFLWKYYKRMYEPETYHVIQEMQKYNISDSRPHVQQFQNAIRKVRQVQRMKKQRGFAFSQAEEGGQEKIVRMYDTTQKRGKYGELQDASANPFNDNNGLGSNDFESAEPFIENPFADGNQNSNRFSSSRDDISFDI
binding [2]: binds | binding [3]: binds | binding [1]: binds

B2: Bet5-GFP (protein, UniProt Q03630 1-159)
chain: MGIYSFWIFDRHCNCIFDREWTLASNSASGTINSKQNEEDAKLLYGMIFSLRSITQKLSKGSVKNDIRSISTGKYRVHTYCTASGLWFVLLSDFKQQSYTQVLQYIYSHIYVKYVSNNLLSPYDFAENENEMRGQGTRKITNRNFISVLESFLAPMVNQ
binding [1]: binds

More lines, now with the values ahead:

binding [1]: binds
Molecule: Dnf1 (from UniProt P32660 1-1571)

binding [1]: binds
Molecule: Dnf2 (from UniProt Q12675 1-1612)

— publication doi:10.1101/2020.12.25.417865
